These are yes or no findings as the source states them, for the method shown. For part of these data: In cells and extracts the contact can be indirect. Some results given as binding are weak or reduced against the parent protein; the word gives no strength.
Key:
HRAS protein (purified) = HRAS protein (purified) (UniProt P01112); experiment: pull-down; in vitro pull-down with purified proteins (Supplementary Fig. 8b); bait not stated; both purified
[1] = molecular target: T1, endogenous DX2 (human (endogenous in DLD-1 and H460)) (UniProt Q13155); experiment: co-IP; endogenous immunoprecipitation in H460 cells treated with DXI
T1 sequence: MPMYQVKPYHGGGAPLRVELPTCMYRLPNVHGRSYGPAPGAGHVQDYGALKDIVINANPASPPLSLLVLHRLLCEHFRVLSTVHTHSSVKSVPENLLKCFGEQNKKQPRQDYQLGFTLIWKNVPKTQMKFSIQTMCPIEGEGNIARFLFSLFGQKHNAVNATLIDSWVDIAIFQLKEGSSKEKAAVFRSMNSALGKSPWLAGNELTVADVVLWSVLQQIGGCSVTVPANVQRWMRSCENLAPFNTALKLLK

Chains of the proteins cited; added tags and fusions are not shown.
UniProt Q8N726: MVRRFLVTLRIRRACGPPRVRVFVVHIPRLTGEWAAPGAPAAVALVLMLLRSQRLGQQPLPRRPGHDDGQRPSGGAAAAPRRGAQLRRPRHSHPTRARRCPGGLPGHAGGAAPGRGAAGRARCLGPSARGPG

[2] = molecular target: T1, endogenous DX2 (human (endogenous in DLD-1 and H460)); experiment: co-IP; immunoprecipitation over time after EGF; cytosol and nucleus fractions; blot intensities quantified relative to the maximum

| binding (HRAS protein (purified)) | binding [1] | binding [2] | Substance |
| --- | --- | --- | --- |
| binds |  |  | Smurf2 protein (purified) (from UniProt Q9HAU4 1-748) (enzyme) |
|  | binds | binds | p14ARF (from UniProt Q8N726 1-132) |

Source: article PMC9095880, “AIMP2-DX2 provides therapeutic interface to control KRAS-driven tumorigenesis” (Nature Communications, 2022)
